Reference: patent US6403602B1 (priority 1997, dated 2002)
Structures were worked out from names or drawings and are uncertain. Some compounds may have been tested in ways that are not shown here.

Sequences of proteins named here, by UniProt entry; tags and fusion partners are left off. Residues count along the entry.
UniProt A0A286XTF2, 1-366: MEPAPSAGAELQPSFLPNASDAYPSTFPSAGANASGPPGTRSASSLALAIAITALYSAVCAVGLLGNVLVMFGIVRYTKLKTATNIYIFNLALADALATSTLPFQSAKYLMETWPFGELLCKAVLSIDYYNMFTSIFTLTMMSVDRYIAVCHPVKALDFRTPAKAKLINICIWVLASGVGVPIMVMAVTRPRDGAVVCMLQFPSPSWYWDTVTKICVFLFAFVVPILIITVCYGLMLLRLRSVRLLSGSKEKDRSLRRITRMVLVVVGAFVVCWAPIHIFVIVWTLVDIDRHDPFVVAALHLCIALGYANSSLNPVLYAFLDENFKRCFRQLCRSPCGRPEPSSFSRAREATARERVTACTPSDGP
UniProt P41144, whole entry: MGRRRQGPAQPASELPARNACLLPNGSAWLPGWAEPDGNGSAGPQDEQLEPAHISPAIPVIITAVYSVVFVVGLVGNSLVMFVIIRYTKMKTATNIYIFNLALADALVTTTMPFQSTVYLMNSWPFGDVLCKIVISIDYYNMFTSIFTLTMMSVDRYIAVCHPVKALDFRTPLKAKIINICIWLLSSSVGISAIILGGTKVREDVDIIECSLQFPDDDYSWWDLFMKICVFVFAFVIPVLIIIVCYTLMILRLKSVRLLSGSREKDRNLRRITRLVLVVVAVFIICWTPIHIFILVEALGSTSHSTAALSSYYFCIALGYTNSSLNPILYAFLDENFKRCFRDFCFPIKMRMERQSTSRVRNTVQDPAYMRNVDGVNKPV
UniProt A0ACM8Q262, 1-400: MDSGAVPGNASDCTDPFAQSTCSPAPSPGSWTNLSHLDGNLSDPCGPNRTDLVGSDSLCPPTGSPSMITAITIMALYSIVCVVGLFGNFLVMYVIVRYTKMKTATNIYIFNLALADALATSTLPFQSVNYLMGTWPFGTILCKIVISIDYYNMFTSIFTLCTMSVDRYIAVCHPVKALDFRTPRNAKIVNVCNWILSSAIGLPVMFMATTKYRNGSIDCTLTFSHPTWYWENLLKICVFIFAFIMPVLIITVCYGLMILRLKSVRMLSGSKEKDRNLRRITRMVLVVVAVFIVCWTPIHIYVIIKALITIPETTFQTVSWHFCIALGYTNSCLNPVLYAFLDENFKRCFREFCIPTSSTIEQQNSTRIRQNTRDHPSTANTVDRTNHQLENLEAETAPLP

Assays:
κ2 sites = assay: Inhibition of binding to κ2 sites of guinea-pig brain homogenates; conditions: read-out: κ2 IC50
delta receptors = delta receptors (Cavia porcellus, UniProt A0A286XTF2); conditions: read-out: Ki δ [^3H]Cl-DPDPE; guinea-pig brain homogenates
kappa3 receptors = assay: Inhibition of [^3H]NalBzoH binding to κ3 sites of guinea-pig brain homogenates; conditions: read-out: Ki κ3 [^3H]NalBzoH
kappa1 sites = kappa1 sites (Cavia porcellus, UniProt P41144); assay: Inhibition of [^3H]U69,593 binding to κ1 sites of guinea-pig brain homogenates; conditions: read-out: Ki κ1 [^3H]U69,593
mu opioid receptors = mu opioid receptors (Cavia porcellus, UniProt A0ACM8Q262); assay: Inhibition of [^3H]DAMGO binding to μ-sites of guinea-pig brain homogenates; conditions: read-out: Ki μ [^3H]DAMGO

SMILES: CN(C(=O)Cc1cc(Cl)c(Cl)cc1N=C=S)C1CCCC[C@@H]1N1CCCC1 (some centres unmarked)
- IC50 (κ2 sites): 0.319 µM
- Ki (delta receptors): > 10 µM
- Ki (kappa3 receptors): 2.52 µM
- Ki (kappa1 sites): 0.0107 µM
- Ki (mu opioid receptors): 1.95 µM
